In this assay the target is polynucleotide kinase/phosphatase (PNKP) (human (endogenous in TNBC cell lines)) (UniProt Q96T60). The assay can be described thus: co-IP; anti-PNKP antibody (sc-271505) with 500 ug TNBC cell lysate overnight at 4 C, protein A/G-PLUS-agarose; IP buffer 1% NP-40, 20 mM Hepes pH 7.5, 100 mM NaCl, 5 mM MgCl2; Western blot for STAT3; cells in steady state or 24 hr after doxorubicin; control without anti-PNKP.

Amino acid sequences for entries named in this document (tags omitted).
UniProt P40763: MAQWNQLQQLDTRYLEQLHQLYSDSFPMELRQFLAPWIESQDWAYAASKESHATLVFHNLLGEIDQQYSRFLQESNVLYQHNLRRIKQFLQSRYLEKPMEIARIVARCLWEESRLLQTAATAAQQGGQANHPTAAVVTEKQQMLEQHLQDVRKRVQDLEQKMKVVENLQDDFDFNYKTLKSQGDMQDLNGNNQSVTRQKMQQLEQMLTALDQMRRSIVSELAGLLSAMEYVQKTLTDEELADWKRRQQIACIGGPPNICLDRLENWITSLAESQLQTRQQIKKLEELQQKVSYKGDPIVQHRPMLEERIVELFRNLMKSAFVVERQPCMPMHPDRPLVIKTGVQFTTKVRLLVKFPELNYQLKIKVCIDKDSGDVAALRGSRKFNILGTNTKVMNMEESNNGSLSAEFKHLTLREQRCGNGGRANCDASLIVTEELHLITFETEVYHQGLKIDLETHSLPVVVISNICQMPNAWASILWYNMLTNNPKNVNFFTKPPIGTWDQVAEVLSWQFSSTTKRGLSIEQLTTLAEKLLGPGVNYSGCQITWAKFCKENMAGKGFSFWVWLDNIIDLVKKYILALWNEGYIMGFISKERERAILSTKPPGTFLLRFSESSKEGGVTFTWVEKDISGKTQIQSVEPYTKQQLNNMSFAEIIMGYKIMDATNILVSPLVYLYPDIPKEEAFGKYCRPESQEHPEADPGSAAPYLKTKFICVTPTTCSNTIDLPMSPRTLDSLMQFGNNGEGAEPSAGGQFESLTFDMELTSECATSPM

These are yes or no findings as the source states them, for the method shown. Binding seen in cells or lysates may run through a third protein. Some entries that bind do so weakly or less than the wild type.

As to STAT3 (from UniProt P40763 1-770), the binding result is “binds”.
